Results from patent publication US9133525B2, “Detection of DNA sequences as risk factors for HIV infection” (priority 2012, dated 2015).
For at least one compound, name, drawing or mass did not settle the structure.

Tested on: antibiotic sensitive microorganism associated with red blood cells
Test: PCR amplification of DNA from red blood cells of HIV-positive patients with MSP2 Primer Pairs 1 and 2, before and after long-term antibiotic treatment
Format: in vivo, human (HIV-positive patients)
Protocol: Standard procedures for separating RBCs from buffy coat and other peripheral blood components are known. Peripheral blood was processed on a Ficoll gradient to separate the buffy coat from red blood cells. […] This lysate was prepared by repeated freeze-thawing of red blood cells isolated from the buffy coat, strong shaking by vortex, and a low speed centrifugation (1,500 g×10 mins). A pellet and supernatant fraction were obtained and tested. The primers described above only amplified DNA in the supernatant fraction, but not in the pellet.
Five HIV-positive patients were maintained on their antiretroviral therapy, but received for at least three months a daily antibiotic treatment (azithromycin 250 mg/day or doxycycline 100 mg/day). Blood samples were fractionated to recover a red blood cell fraction on day 0 and after 3 months of antibiotic.
Blood samples were obtained from African and European Patients who were HIV-negative or HIV-positive. Red blood cells were isolated from buffy coat and other blood components by separation on a Ficoll gradient as described above. […] Similar results were obtained using the primers described in Appendix 3. […] However, amplified DNA was detected in this patient using the Primer Pairs 1 and 2 shown in Appendix 2, but the amplified DNA bands were weaker than those for chronically-infected HIV-positive patients. […]

SMILES: C[C@H]1c2cccc(O)c2C(=O)C2=C(O)[C@]3(O)C(=O)C(C(N)=O)=C(O)[C@@H](N(C)C)[C@@H]3[C@@H](O)[C@@H]21 [doxycycline]
- intensity of the bands amplified using these primers (HIV-positive patients, long term antibiotic treatment for more than three months, Primer Pairs 1 and 2): decrease
- amount of DNA amplified after 3 months of antibiotic treatment vs day 0 (five HIV-positive patients on antiretroviral therapy, daily azithromycin 250 mg/day or doxycycline 100 mg/day for at least three months, red blood cell fraction): significantly less
